Measurements reported in PubChem BioAssay AID743454 (Peter MacCallum Cancer Centre, 2014)
The deposit covers about 18,000 reagents; shown is an unselected part. Of all reagents, 450 (2.5%) got an active call. 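Single biological run; no consistent viability z cut-off exists, so the class columns, not z-scores, define the calls.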 Reagent sequences are not shown.

Assay: 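Knock-downs lowering viability or raising caspase 3/7 activity in vorinostat-treated resistant cells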 (primary screen)
Cells: human HCT116-VR colon cancer cells, selected for vorinostat resistance
Knock-down reagent: siRNA pool against human genes, 40 nM siRNA pool
Time to read-out: vorinostat for 24 h, read-out about 72 h after transfection
Challenge: vorinostat at 2.5 µM final
Measured: 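Two measures, CellTiter-Fluor viability and luminescent caspase 3/7 activity, each as fold change against same-plate mock wells, mean of duplicates, then screen-wide robust z-score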
Reading the numbers: viability robust z-score: higher = more viable cells than screen typical; caspase robust z-score: higher = more caspase 3/7 activity than screen typical
Rule for the call: 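a knock-down is a hit when classed RV1 or RV2 for lowered viability, or CA1 or CA2 for caspase activation; those lethal without drug were dropped; hits were retested singly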

Which result is listed for STAG3L2?
viability hit class: no change; caspase hit class: no change; viability robust z-score: 0.46; caspase robust z-score: -0.82; Outcome: inactive

For EN2, what was measured?
viability hit class: no change; caspase hit class: no change; viability robust z-score: -0.07; caspase robust z-score: 0.22; Outcome: inactive

With ZNF658, how do the results read?
viability hit class: no change; caspase hit class: no change; viability robust z-score: -0.68; caspase robust z-score: -0.12; Outcome: inactive

Which result is listed for RBMS2?
viability hit class: no change; caspase hit class: no change; viability robust z-score: 0.2; caspase robust z-score: 0.09; Outcome: inactive

For THEMIS2, what does the deposit list?
viability hit class: no change; caspase hit class: no change; viability robust z-score: 0.35; caspase robust z-score: -0.84; Outcome: inactive

For CNOT7, how do the results read?
viability hit class: no change; caspase hit class: no change; viability robust z-score: 0.36; caspase robust z-score: -0.36; Outcome: inactive

How did the screen score WNT10B?
viability hit class: no change; caspase hit class: no change; viability robust z-score: -0.89; caspase robust z-score: 2.35; Outcome: inactive

For KIF20A, what was measured?
viability hit class: no change; caspase hit class: no change; viability robust z-score: -0.52; caspase robust z-score: -0.43; Outcome: inactive

Which result is listed for BAIAP2?
viability hit class: no change; caspase hit class: no change; viability robust z-score: 1.19; caspase robust z-score: -0.44; Outcome: inactive

Look-ups from above:
STAG3L2, caspase hit class: no change
WNT10B, viability hit class → no change
BAIAP2, caspase robust z-score: -0.44

More results follow.
For INHBA, what was measured?
viability hit class: no change; caspase hit class: no change; viability robust z-score: 0.68; caspase robust z-score: -1.19; Outcome: inactive

With MTR, what was measured?
viability hit class: no change; caspase hit class: no change; viability robust z-score: 0.22; caspase robust z-score: -0.61; Outcome: inactive

With SELE, what does the deposit list?
viability hit class: no change; caspase hit class: no change; viability robust z-score: 0.48; caspase robust z-score: -1.33; Outcome: inactive

Which result is listed for SEZ6L2?
viability hit class: no change; caspase hit class: no change; viability robust z-score: 1.21; caspase robust z-score: -0.39; Outcome: inactive

What did the screen give for KDELR2?
viability hit class: no change; caspase hit class: no change; viability robust z-score: 0.32; caspase robust z-score: 0.04; Outcome: inactive

For ZNF285, what does the deposit list?
viability hit class: no change; caspase hit class: no change; viability robust z-score: 1.13; caspase robust z-score: 0.66; Outcome: inactive

What did the screen give for MATN4?
viability hit class: no change; caspase hit class: no change; viability robust z-score: -2; caspase robust z-score: 2.34; Outcome: inactive

With PPP2CB, what was measured?
viability hit class: no change; caspase hit class: no change; viability robust z-score: -0.84; caspase robust z-score: 1.24; Outcome: inactive

With ACTL10, what was measured?
viability hit class: no change; caspase hit class: no change; viability robust z-score: 1.09; caspase robust z-score: 0.08; Outcome: inactive

With SPON1, how do the results read?
viability hit class: no change; caspase hit class: no change; viability robust z-score: 1.34; caspase robust z-score: 1.03; Outcome: inactive

With LGALS9B, how do the results read?
viability hit class: no change; caspase hit class: no change; viability robust z-score: -0.02; caspase robust z-score: -1.12; Outcome: inactive

What did the screen give for MFGE8?
viability hit class: no change; caspase hit class: no change; viability robust z-score: -0.99; caspase robust z-score: 0.12; Outcome: inactive

What did the screen give for PHC2?
viability hit class: no change; caspase hit class: no change; viability robust z-score: -0.27; caspase robust z-score: 0.57; Outcome: inactive

What is on record for BPIFC?
viability hit class: no change; caspase hit class: no change; viability robust z-score: 0.12; caspase robust z-score: -0.1; Outcome: inactive

How did the screen score CD209?
viability hit class: no change; caspase hit class: no change; viability robust z-score: 0.24; caspase robust z-score: 0.52; Outcome: inactive

Which result is listed for USP13?
viability hit class: no change; caspase hit class: no change; viability robust z-score: -0.7; caspase robust z-score: -0.42; Outcome: inactive

For SMIM14, what does the deposit list?
viability hit class: no change; caspase hit class: no change; viability robust z-score: 0.1; caspase robust z-score: -0.88; Outcome: inactive

How did the screen score PRR3?
viability hit class: no change; caspase hit class: no change; viability robust z-score: 0.36; caspase robust z-score: -0.61; Outcome: inactive
